# Drug screen on melanoma cell lines: cell count

Values as published with doi:10.1371/journal.pone.0140310, rounded.

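The test systems are human melanoma cell lines, treated with two drugs together for 72 h and then stained and imaged. The read-out is cell count (nuclei) in % of the DMSO control; lower values mean stronger growth inhibition or killing. Concentrations were fixed for each drug; these are the higher of two levels. These are primary screening values without error estimates.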 This is part of the screen, not chosen by result.

Drug key:
SNS-314: O=C(Nc1cccc(Cl)c1)Nc1ncc(CCNc2ncnc3ccsc23)s1 at 0.004 µM
darinaparsin: C[As](C)SC[C@H](NC(=O)CC[C@H](N)C(=O)O)C(=O)NCC(=O)O at 2 µM
lenalidomide: Nc1cccc2c1CN(C1CCC(=O)NC1=O)C2=O (stereo not given) at 5 µM
XAV939: Oc1nc(-c2ccc(C(F)(F)F)cc2)nc2c1CSCC2 at 10 µM
AZD7762: NC(=O)Nc1cc(-c2cccc(F)c2)sc1C(=O)N[C@H]1CCCNC1 at 0.1 µM
decitabine: Nc1ncn([C@H]2C[C@H](O)[C@@H](CO)O2)c(=O)n1 at 0.5 µM
OSU-03012: NCC(=O)Nc1ccc(-n2nc(C(F)(F)F)cc2-c2ccc3c(ccc4ccccc43)c2)cc1 at 5 µM
IMD-0354: O=C(Nc1cc(C(F)(F)F)cc(C(F)(F)F)c1)c1cc(Cl)ccc1O at 0.08 µM
dasatinib: Cc1nc(Nc2ncc(C(=O)Nc3c(C)cccc3Cl)s2)cc(N2CCN(CCO)CC2)n1 at 0.02 µM

* lenalidomide + decitabine : C32: 104; COLO 800: 50.7; COLO 792: 55.8; COLO 829: 74.5; WM3619: 104; WM451Lu: 80.7
* SNS-314 + dasatinib : C32: 59.4; COLO 800: 43.7; COLO 792: 30.1; COLO 829: 30.9; WM3619: 77.2; WM451Lu: 39.3
* SNS-314 + darinaparsin : C32: 50.0; COLO 800: 37.4; COLO 792: 49.9; COLO 829: 86.2; WM3619: 69.6; WM451Lu: 55.8
* IMD-0354 + AZD7762 : C32: 68.2; COLO 800: 69.8; COLO 792: 35.7; COLO 829: 118; WM3619: 14.9; WM451Lu: 81.2
* lenalidomide + OSU-03012 : C32: 85.1; COLO 800: 72.8; COLO 792: 57.0; COLO 829: 53.9; WM3619: 88.1; WM451Lu: 98.1
* XAV939 + lenalidomide : C32: 91.8; COLO 800: 88.0; COLO 792: 90.4; COLO 829: 86.3; WM3619: 66.5; WM451Lu: 103
* dasatinib + OSU-03012 : C32: 72.2; COLO 800: 56.5; COLO 792: 36.2; COLO 829: 42.1; WM3619: 53.7; WM451Lu: 65.3
* darinaparsin + XAV939 : C32: 111; COLO 800: 74.1; COLO 792: 82.7; COLO 829: 115; WM3619: 86.5; WM451Lu: 101
* XAV939 + OSU-03012 : C32: 101; COLO 800: 61.5; COLO 792: 68.9; COLO 829: 81.3; WM3619: 60.5; WM451Lu: 113
* AZD7762 + SNS-314 : C32: 56.0; COLO 800: 45.9; COLO 792: 37.6; COLO 829: 74.8; WM3619: 18.7; WM451Lu: 81.6
* AZD7762 + decitabine : C32: 58.7; COLO 800: 74.6; COLO 792: 52.8; COLO 829: 77.8; WM3619: 26.2; WM451Lu: 82.9
* lenalidomide + AZD7762 : C32: 64.0; COLO 800: 48.5; COLO 792: 48.8; COLO 829: 102; WM3619: 15.4; WM451Lu: 68.0
* IMD-0354 + decitabine : C32: 88.0; COLO 800: 103; COLO 792: 59.2; COLO 829: 60.6; WM3619: 80.2; WM451Lu: 94.9
* dasatinib + XAV939 : C32: 76.2; COLO 800: 87.8; COLO 792: 51.5; COLO 829: 73.9; WM3619: 51.0; WM451Lu: 76.6
* decitabine + dasatinib : C32: 79.9; COLO 800: 58.6; COLO 792: 59.4; COLO 829: 50.7; WM3619: 105; WM451Lu: 66.4
* darinaparsin + OSU-03012 : C32: 61.1; COLO 800: 47.0; COLO 792: 46.2; COLO 829: 51.8; WM3619: 72.5; WM451Lu: 53.2
* XAV939 + SNS-314 : C32: 76.8; COLO 800: 52.8; COLO 792: 55.1; COLO 829: 76.7; WM3619: 62.1; WM451Lu: 49.4
* IMD-0354 + dasatinib : C32: 93.9; COLO 800: 68.1; COLO 792: 45.4; COLO 829: 54.4; WM3619: 72.8; WM451Lu: 63.6
* lenalidomide + IMD-0354 : C32: 126; COLO 800: 122; COLO 792: 112; COLO 829: 80.1; WM3619: 92.7; WM451Lu: 99.9
* IMD-0354 + SNS-314 : C32: 80.9; COLO 800: 73.7; COLO 792: 81.9; COLO 829: 78.5; WM3619: 96.6; WM451Lu: 59.6
* AZD7762 + XAV939 : C32: 79.1; COLO 800: 74.1; COLO 792: 50.6; COLO 829: 95.0; WM3619: 35.7; WM451Lu: 93.1
* OSU-03012 + SNS-314 : C32: 63.4; COLO 800: 22.7; COLO 792: 40.5; COLO 829: 50.3; WM3619: 68.5; WM451Lu: 59.1
* AZD7762 + OSU-03012 : C32: 47.3; COLO 800: 42.8; COLO 792: 44.9; COLO 829: 72.7; WM3619: 25.2; WM451Lu: 90.9
* dasatinib + lenalidomide : C32: 61.7; COLO 800: 81.5; COLO 792: 46.5; COLO 829: 37.4; WM3619: 75.6; WM451Lu: 65.7
* dasatinib + AZD7762 : C32: 77.6; COLO 800: 29.2; COLO 792: 28.9; COLO 829: 58.9; WM3619: 21.8; WM451Lu: 63.9
* decitabine + OSU-03012 : C32: 113; COLO 800: 71.9; COLO 792: 70.3; COLO 829: 58.0; WM3619: 42.1; WM451Lu: 78.7
* darinaparsin + dasatinib : C32: 72.4; COLO 800: 63.7; COLO 792: 59.4; COLO 829: 22.4; WM3619: 81.8; WM451Lu: 57.0
* decitabine + darinaparsin : C32: 108; COLO 800: 122; COLO 792: 98.5; COLO 829: 76.4; WM3619: 113; WM451Lu: 83.6
* darinaparsin + AZD7762 : C32: 56.7; COLO 800: 41.6; COLO 792: 59.4; COLO 829: 57.1; WM3619: 28.9; WM451Lu: 48.7
* XAV939 + decitabine : C32: 82.3; COLO 800: 75.7; COLO 792: 70.8; COLO 829: 84.6; WM3619: 76.0; WM451Lu: 78.9
* XAV939 + IMD-0354 : C32: 106; COLO 800: 50.1; COLO 792: 101; COLO 829: 111; WM3619: 72.6; WM451Lu: 107
* decitabine + SNS-314 : C32: 74.7; COLO 800: 36.0; COLO 792: 41.6; COLO 829: 63.0; WM3619: 57.0; WM451Lu: 44.7
* darinaparsin + lenalidomide : C32: 99.1; COLO 800: 98.7; COLO 792: 125; COLO 829: 77.5; WM3619: 84.9; WM451Lu: 102
* darinaparsin + IMD-0354 : C32: 83.0; COLO 800: 89.3; COLO 792: 86.9; COLO 829: 101; WM3619: 68.3; WM451Lu: 85.9
* OSU-03012 + IMD-0354 : C32: 94.3; COLO 800: 73.3; COLO 792: 56.4; COLO 829: 63.1; WM3619: 63.3; WM451Lu: 83.7

4 of the entries, repeated:

Combination,C32,COLO 800,COLO 792,COLO 829,WM3619,WM451Lu
IMD-0354 + decitabine,88.0,103,59.2,60.6,80.2,94.9
IMD-0354 + AZD7762,68.2,69.8,35.7,118,14.9,81.2
AZD7762 + XAV939,79.1,74.1,50.6,95.0,35.7,93.1
XAV939 + decitabine,82.3,75.7,70.8,84.6,76.0,78.9